For assay [1], the target named is endogenous HSF2 protein of the mouse fetal cortex (mouse (endogenous in fetal cortex)) (UniProt P38533). The assay is described as follows: affinity purification with mass spectrometry; endogenous HSF2 immunoprecipitated (monoclonal antibody 3E2, protein G agarose; PBS as control) from extracts of E17 mouse cortices (10 mM HEPES pH 7.9, 400 mM NaCl, 5% glycerol, EGTA); gel bands analysed by LC/MS/MS.

By UniProt entry, the sequences of proteins in these tests, tags left out. Where a name states a change or a piece, a line headed by the entry shows the natural chain unless it says otherwise. Chains listed by the source or under a name are the forms on record and can include a tag or linker.
UniProt P38533: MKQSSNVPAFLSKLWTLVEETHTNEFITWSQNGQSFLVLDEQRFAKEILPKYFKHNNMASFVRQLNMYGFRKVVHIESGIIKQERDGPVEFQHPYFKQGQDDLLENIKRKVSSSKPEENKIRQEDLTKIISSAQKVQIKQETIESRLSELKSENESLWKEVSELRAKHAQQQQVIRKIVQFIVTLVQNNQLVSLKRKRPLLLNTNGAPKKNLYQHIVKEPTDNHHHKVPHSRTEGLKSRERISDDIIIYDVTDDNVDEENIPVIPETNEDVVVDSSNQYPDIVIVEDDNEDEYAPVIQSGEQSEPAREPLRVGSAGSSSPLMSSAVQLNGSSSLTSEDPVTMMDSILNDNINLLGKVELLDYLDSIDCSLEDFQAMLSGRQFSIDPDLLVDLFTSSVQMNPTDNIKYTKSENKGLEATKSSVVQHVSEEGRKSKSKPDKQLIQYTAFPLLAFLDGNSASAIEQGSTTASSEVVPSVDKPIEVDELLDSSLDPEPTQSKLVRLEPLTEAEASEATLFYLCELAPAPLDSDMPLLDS
double-tagged HSF2β (CTAP-HSF2β) (P38533, form named): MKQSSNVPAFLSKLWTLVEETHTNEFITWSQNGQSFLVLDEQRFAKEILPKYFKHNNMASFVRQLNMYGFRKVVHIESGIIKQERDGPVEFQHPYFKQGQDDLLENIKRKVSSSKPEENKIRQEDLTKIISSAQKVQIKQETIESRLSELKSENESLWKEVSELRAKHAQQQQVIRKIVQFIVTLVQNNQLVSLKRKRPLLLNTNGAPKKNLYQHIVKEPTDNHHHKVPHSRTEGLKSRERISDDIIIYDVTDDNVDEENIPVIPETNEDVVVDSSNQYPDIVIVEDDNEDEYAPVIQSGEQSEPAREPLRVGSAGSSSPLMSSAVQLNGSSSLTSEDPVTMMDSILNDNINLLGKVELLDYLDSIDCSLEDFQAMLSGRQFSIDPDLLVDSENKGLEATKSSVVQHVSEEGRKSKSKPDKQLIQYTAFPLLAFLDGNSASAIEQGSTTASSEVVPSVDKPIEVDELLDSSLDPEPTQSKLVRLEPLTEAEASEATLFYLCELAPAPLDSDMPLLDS
UniProt P26039: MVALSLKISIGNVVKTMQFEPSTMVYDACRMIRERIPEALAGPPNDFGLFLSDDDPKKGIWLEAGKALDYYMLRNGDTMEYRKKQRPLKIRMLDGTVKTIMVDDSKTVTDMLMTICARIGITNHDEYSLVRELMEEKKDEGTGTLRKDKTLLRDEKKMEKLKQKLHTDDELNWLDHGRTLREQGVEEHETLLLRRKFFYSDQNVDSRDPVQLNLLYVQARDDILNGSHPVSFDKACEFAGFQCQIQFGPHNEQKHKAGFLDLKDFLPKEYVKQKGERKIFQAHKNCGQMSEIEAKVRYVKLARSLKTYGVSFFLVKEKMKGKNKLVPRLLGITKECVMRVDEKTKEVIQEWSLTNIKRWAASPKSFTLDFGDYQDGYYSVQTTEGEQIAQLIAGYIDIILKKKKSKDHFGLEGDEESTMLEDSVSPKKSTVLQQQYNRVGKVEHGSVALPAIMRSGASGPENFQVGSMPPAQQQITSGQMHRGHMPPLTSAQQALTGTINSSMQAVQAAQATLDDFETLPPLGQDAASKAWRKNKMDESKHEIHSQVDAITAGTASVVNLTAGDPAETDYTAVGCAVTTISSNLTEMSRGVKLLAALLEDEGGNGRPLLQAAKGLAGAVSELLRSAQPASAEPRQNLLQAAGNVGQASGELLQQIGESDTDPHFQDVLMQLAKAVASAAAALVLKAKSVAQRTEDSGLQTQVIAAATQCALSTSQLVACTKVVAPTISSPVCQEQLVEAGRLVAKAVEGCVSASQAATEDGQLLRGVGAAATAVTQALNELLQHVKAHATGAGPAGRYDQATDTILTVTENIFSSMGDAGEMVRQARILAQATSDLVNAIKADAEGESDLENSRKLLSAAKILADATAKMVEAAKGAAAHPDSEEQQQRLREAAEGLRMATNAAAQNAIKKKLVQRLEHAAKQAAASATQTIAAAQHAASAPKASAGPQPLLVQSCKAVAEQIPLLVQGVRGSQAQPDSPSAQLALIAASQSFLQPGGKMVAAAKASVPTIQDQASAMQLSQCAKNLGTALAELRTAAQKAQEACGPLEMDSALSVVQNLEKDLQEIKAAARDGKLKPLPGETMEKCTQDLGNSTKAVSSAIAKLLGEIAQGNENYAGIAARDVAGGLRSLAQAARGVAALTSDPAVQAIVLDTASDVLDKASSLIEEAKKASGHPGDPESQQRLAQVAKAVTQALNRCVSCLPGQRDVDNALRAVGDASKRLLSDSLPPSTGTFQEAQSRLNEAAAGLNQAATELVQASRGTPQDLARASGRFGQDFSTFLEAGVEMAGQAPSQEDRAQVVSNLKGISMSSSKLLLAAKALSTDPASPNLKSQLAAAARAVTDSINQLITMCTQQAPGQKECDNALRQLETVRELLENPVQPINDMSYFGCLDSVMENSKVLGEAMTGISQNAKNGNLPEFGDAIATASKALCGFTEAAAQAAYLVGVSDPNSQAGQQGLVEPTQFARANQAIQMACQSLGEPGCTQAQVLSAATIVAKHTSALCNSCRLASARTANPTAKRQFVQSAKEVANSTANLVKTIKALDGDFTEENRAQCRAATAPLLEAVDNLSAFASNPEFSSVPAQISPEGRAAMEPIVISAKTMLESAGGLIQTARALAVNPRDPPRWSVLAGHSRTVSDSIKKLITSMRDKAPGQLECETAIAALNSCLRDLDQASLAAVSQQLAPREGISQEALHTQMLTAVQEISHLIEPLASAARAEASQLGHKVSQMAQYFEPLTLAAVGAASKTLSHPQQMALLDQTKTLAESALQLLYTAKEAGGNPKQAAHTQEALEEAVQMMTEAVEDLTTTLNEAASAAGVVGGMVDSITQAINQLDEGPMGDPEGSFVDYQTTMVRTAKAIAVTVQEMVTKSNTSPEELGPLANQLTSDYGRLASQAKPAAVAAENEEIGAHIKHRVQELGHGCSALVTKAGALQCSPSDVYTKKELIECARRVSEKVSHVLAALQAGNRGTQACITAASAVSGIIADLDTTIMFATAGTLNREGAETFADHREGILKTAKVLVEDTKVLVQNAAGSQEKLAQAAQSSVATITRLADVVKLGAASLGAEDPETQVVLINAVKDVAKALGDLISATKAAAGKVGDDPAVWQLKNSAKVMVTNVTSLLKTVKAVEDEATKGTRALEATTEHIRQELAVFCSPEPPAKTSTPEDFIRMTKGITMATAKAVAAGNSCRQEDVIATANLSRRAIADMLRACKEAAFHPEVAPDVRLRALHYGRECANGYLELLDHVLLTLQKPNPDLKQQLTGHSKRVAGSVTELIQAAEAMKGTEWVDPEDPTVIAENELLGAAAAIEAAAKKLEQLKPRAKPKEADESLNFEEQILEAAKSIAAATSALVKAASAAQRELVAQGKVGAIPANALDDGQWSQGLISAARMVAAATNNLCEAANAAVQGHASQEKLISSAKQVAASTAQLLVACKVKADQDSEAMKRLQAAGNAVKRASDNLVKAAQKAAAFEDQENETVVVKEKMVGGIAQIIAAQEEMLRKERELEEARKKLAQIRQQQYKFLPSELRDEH
UniProt O15379: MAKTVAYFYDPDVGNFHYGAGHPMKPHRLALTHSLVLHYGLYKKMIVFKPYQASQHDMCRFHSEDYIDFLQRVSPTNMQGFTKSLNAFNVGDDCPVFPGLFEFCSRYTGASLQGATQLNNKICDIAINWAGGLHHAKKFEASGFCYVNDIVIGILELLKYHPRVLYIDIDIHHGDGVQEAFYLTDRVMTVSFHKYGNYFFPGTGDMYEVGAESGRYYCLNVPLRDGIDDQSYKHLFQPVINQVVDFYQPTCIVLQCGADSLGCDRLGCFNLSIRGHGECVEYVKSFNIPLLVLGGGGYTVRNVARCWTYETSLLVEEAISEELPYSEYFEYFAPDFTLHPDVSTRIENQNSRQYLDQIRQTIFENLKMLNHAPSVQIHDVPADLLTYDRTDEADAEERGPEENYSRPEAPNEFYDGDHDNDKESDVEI
UniProt Q92769: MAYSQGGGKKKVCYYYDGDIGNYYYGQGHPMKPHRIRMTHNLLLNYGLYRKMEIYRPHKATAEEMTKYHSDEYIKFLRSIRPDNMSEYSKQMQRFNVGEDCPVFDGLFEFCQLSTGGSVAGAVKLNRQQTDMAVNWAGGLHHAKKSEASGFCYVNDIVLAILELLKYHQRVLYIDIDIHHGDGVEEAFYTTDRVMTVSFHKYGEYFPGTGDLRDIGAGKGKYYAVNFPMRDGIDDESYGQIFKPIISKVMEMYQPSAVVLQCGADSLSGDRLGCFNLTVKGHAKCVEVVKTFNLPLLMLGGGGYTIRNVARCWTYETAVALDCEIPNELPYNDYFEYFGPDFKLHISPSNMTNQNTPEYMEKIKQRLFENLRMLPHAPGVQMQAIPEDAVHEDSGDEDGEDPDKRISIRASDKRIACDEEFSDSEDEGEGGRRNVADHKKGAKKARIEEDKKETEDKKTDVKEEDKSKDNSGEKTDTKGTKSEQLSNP
UniProt Q03933: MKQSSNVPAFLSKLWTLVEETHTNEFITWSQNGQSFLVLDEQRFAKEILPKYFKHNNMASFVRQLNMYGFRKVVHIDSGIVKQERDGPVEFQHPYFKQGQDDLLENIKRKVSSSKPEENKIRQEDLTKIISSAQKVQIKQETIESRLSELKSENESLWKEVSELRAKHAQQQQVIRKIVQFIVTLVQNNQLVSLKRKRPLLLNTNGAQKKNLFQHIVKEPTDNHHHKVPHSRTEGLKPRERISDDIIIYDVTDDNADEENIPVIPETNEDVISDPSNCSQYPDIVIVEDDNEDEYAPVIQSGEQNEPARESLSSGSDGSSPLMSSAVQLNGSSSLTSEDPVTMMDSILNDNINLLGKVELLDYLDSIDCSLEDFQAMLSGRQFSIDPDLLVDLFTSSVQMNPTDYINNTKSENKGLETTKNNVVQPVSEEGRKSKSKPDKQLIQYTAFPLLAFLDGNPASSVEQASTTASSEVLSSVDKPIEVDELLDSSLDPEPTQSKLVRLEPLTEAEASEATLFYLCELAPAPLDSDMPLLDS
UniProt Q13547: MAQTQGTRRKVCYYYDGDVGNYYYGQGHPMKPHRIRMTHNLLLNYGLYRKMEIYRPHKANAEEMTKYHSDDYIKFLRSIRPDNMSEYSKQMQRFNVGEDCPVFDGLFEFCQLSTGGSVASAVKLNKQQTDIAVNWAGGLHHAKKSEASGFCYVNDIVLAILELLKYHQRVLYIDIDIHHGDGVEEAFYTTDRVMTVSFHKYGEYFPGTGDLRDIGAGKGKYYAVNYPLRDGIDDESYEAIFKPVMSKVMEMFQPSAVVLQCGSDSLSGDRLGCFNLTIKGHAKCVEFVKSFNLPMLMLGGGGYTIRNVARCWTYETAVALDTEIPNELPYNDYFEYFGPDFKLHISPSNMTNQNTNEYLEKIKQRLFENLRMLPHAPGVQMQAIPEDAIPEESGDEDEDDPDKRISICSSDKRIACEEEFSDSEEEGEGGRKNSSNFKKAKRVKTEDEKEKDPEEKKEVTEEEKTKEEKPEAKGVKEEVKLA
UniProt P62259: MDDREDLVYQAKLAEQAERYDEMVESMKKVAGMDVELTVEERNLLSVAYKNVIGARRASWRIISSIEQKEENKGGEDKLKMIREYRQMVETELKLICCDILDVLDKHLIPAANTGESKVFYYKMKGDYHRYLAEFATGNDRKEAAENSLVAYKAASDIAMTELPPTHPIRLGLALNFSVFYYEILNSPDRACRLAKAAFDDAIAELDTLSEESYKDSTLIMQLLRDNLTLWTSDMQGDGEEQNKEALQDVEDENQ
UniProt O09106: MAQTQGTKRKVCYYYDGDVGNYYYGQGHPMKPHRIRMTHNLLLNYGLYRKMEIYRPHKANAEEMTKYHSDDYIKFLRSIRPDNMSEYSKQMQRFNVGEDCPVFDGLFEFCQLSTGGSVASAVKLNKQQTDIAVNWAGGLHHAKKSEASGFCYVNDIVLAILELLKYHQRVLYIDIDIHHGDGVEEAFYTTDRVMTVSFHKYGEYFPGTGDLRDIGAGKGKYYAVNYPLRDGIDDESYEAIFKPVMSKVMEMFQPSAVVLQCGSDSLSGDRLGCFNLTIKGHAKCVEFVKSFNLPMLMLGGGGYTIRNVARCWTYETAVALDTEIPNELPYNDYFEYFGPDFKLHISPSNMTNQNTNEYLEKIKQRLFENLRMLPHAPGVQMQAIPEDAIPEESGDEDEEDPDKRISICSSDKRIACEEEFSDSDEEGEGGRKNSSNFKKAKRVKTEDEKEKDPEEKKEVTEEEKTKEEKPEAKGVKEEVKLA

For assay [2], the target named is double-tagged HSF2α (CTAP-HSF2α) (mouse) (UniProt P38533). The assay can be described thus: affinity purification with mass spectrometry; double-affinity TAP-TAG: nuclear extracts of HeLa-S3 cells stably expressing double-tagged HSF2α or HSF2β on IgG-agarose overnight, washes in Tris 50 mM, NP40 0.1%, 150 mM, TEV elution, Dynabeads streptavidin, elution with D-biotin 5 mM; LC/MS/MS; empty vector as control.

Assay [3] concerns the target double-tagged HSF2β (CTAP-HSF2β) (mouse) (UniProt P38533). The assay is described as above.

No constants are given. Whether binding was seen depends on the method and setting. In cells and extracts the contact can be indirect. These calls come from enrichment with a bait or labelling near it, and not all partners need be listed. For some of these results: No binding means not detected with the bait.

As to Talin-1 (from UniProt P26039 1-2541), the binding result in assay [1] is “binds”.

For “Nuclear pore glycoprotein p62 (from UniProt P37198 1-522)”, the binding entry in assay [2] is recorded as “binds”.

On to “HDAC3, human (from UniProt O15379 1-428) (enzyme)”, for which the binding entry in assay [2] and in assay [3] was “no binding” throughout.

“DNA Topoisomerase 2a (from UniProt Q01320 1-1528) (enzyme)”: the binding result in assay [1] was “binds”.

With “HDAC2, human (from UniProt Q92769 1-488) (enzyme)”, the binding result in assay [2] and in assay [3] was “no binding” throughout.

On to “Heat Shock Factor HSF2 (identified in the TAP-TAG eluates, matched to HSF2_HUMAN) (from UniProt Q03933 1-536)”, for which the binding result in assay [2] and in assay [3] was “binds” in each case.

Take “lysine-deacetylase HDAC1 (histone-deacetylase 1), human (from UniProt Q13547 1-482) (enzyme)”: the binding entry in assay [2] and in assay [3] was “binds” each time.

Take “Ywhae 14-3-3 protein epsilon (from UniProt P62259 1-255)”: the binding result in assay [1] is “binds”.

Consider “lysine-deacetylase HDAC1, mouse (from UniProt O09106 1-482) (enzyme)”, for which, in assay [1], the binding result is listed as “binds”.

Source of the values: paper PMC12150047.
